Values from PubChem BioAssay AID1259254 (NCATS, 2017).

Assay: 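Gene knock-downs that lead to re-replication, shown by excess G2 DNA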 (primary screen)
Cells: human HCT116 colorectal cancer cells
Reagent: single siRNA against human genes
Timing: 3 days
Read-out: 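Imaged Hoechst DNA stain sorts each cell into a cycle phase by DNA amount; per plate, G2 fraction set to 0% for non-targeting and 100% for GMNN siRNA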
Reading the numbers: G2 robust z-score: higher = more G2 cells, more excess DNA replication
Rule for the call: 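Active siRNAs have a G2 robust z of 5 or more median absolute deviations over the median, which in these data means about 38% or higher of GMNN control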
Shown is one part, drawn at random, of about 59,000 reagents. About 1,550 of all reagents (2.6%) were called active. 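G2 share is only a proxy for re-replication; each gene was hit by three separate siRNAs, and active genes were retested.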 Unmarked entries are inactive. Reagents against one gene are numbered here. Not all columns of the deposit are shown. Not given: the amount of reagent.

G2 robust z-score	gene	siRNA no.
0.175	RHBDL1	1
3.4	RHBDL1	2
0.286	RHBDL1	3
-0.854	APOL1	1
6.79 (active)	APOL1	2
0.0708	APOL1	3
-0.0722	OR11G2	1
-0.384	OR11G2	2
-0.752	OR11G2	3
-0.458	MSL3B	1
0.464	MSL3B	2
-0.0205	MSL3B	3
-0.953	POLR3K	1
-0.0845	POLR3K	2
4.04	POLR3K	3
12.2 (active)	ATP8B4	1
0.05	ATP8B4	2
0.551	ATP8B4	3
-1.16	OTOP1	1
0.309	OTOP1	2
-0.135	OTOP1	3
0.28	C21orf91	1
-0.159	C21orf91	2
0.0185	C21orf91	3
1.87	ANKLE1	1
1.59	ANKLE1	2
1.94	ANKLE1	3

Continued; the last 7 above are carried over.
G2 robust z-score	gene	siRNA no.
-0.135	OTOP1	3
0.28	C21orf91	1
-0.159	C21orf91	2
0.0185	C21orf91	3
1.87	ANKLE1	1
1.59	ANKLE1	2
1.94	ANKLE1	3
1.27	PPP1R14B	1
5.06 (active)	PPP1R14B	2
-0.65	PPP1R14B	3
5.3 (active)	FAS	1
-0.146	FAS	2
-0.887	FAS	3
-0.632	GGH	1
2.49	GGH	2
1.56	GGH	3
0.0678	CLCN2	1
-1.14	CLCN2	2
1.69	CLCN2	3
-0.361	RECQL	1
-0.016	RECQL	2
3.32	RECQL	3
0.251	EFNB3	1
-0.685	EFNB3	2
-0.159	EFNB3	3
0.317	UPF1	1
0.799	UPF1	2
1.15	UPF1	3
0.945	PPIL6	1
-0.381	PPIL6	2
1.97	PPIL6	3
1.24	ELL	1
-1.7	ELL	2
-0.573	ELL	3
-0.533	FYB1	1
-0.526	FYB1	2
-0.513	FYB1	3
0.47	RASA3	1
-1.04	RASA3	2
-0.389	RASA3	3
0.952	SLAIN1	1
-0.728	SLAIN1	2
0.0176	SLAIN1	3
-0.864	NCR1	1
1.23	NCR1	2
-0.415	NCR1	3
-0.475	PTPN18	1
0.402	PTPN18	2
2.5	PTPN18	3
